Experimental data: PubChem BioAssay AID720710 (VTT Finland, 2013)
Purpose: 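Genes whose loss lowers DNA synthesis when an oncogene drives replication stress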 (primary screen). Cells: human U-2 OS bone cancer cells, parental and a cyclin E (CCNE1) overexpressing line. Reagents: single siRNA against human genes, 1 µM siRNA in the printed spot mix. Duration: 67 h. Treatment: half the arrays: hydroxyurea 2 mM for 16 h, then 3 h recovery; other arrays untreated. Detection: 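DNA synthesis measured as imaged EdU uptake per nucleus (DAPI) at 67 h, normalised to subgrid median and given as z-score versus non-targeting controls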. Scale: EdU z-score, cyclin E line, hydroxyurea and EdU z-score, parental, hydroxyurea and EdU z-score, cyclin E line, untreated and EdU z-score, parental, untreated: higher = more DNA synthesis than non-targeting controls.
Shown is one part, drawn at random, of about 1,380 reagents tested. 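One array per condition without replicates; hydroxyurea arrays received 2 mM for 16 h plus 3 h recovery.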 Reagents against one gene are numbered here.

| target gene | reagent | EdU z-score, cyclin E line, hydroxyurea | EdU z-score, parental, hydroxyurea | EdU z-score, cyclin E line, untreated | EdU z-score, parental, untreated |
| --- | --- | --- | --- | --- | --- |
| MTA2 | 1 | -2.86 | -1.55 | -0.906 | -2.93 |
| MTA2 | 2 | -0.0689 | -1.07 | 0.0705 | 0.296 |
| LOC730429 | 1 | -2.9 | -0.0664 | -2.47 | -0.323 |
| LOC730429 | 2 | -1.29 | 0.503 | -1.84 | -0.301 |
| CBL | 1 | -1.97 | 1.79 | -1.12 | -0.799 |
| CBL | 2 | 0.773 | 2.66 | -0.963 | -0.217 |
| SMARCA4 | 1 | -1.34 | -5.35 | -0.633 | -1.46 |
| SMARCA4 | 2 | -1.21 | -2.77 | -0.39 | 1.5 |
| SMG1 | 1 | -1.06 | -1.03 | -4.49 | -0.926 |
| SMG1 | 2 | -0.835 | -0.535 | 0.947 | 0.502 |
| CCNA2 | 1 | -1.51 | -1.14 | 0.121 | -0.638 |
| CCNA2 | 2 | -0.103 | -0.819 | 0.184 | 2.8 |
| UNG | 1 | -1.02 | 0.209 | -1.35 | -0.277 |
| UNG | 2 | -0.125 | 1.92 | -0.852 | 1.14 |
| CDC45 | 1 | -0.0371 | 0.00606 | -1.75 | -3.03 |
| CDC45 | 2 | 0.094 | 1.8 | -0.612 | -1.36 |
| DNMT1 | 1 | -3.65 | 0.541 | -2.5 | -0.878 |
| DNMT1 | 2 | 0.686 | 1.96 | -0.655 | 0.214 |
| ZBTB1 | 1 | -0.919 | -0.026 | -0.542 | -1.2 |
| ZBTB1 | 2 | -0.132 | 1.68 | -0.484 | 0.803 |
| E4F1 | 1 | -2.06 | -1.93 | -1.02 | 0.14 |
| E4F1 | 2 | 0.705 | 1.41 | -0.419 | 0.939 |
| PPP2R3B | 1 | -0.957 | 0.33 | -2.01 | 0.147 |
| PPP2R3B | 2 | 0.889 | 0.538 | -0.365 | 0.347 |
| PCBP4 | 1 | 0.0323 | 0.859 | -0.418 | -2.01 |
| PCBP4 | 2 | 0.905 | 1.39 | -0.042 | 0.967 |
| NUDT1 | 1 | -0.765 | 0.174 | -7.4 | -0.958 |
| NUDT1 | 2 | -0.234 | 0.577 | 0.0342 | -0.425 |
| ERCC4 | 1 | -1.38 | -2.08 | -4.87 | -1.02 |
| ERCC4 | 2 | -0.208 | -1.37 | -0.866 | 0.344 |
| IFI6 | 1 | -1.64 | -2.07 | -1.05 | -1.35 |
| IFI6 | 2 | -0.243 | 0.979 | 0.129 | -0.167 |
| DTL | 1 | -1.59 | 0.4 | -3.03 | -1.85 |
| DTL | 2 | 0.697 | 1.24 | -1.06 | 0.21 |
| PMS1 | 1 | -1.09 | -4.26 | -5.46 | -1.45 |
| PMS1 | 2 | -0.364 | 0.681 | -2.6 | -1.11 |
| SMC5 | 1 | -0.433 | -3.23 | -1.54 | -0.458 |
| SMC5 | 2 | -0.427 | -0.494 | -0.725 | 0.671 |
| BDP1 | 1 | 0.417 | 0.365 | -0.792 | -0.877 |
| BDP1 | 2 | 1.4 | 2.83 | -0.632 | -0.647 |
| MAPK12 | 1 | -0.732 | -1.25 | -1.27 | -0.798 |
| MAPK12 | 2 | -0.489 | -0.252 | -0.724 | 0.695 |
| CDKN1A | 1 | -0.216 | -2.37 | -1.8 | -3.1 |
| CDKN1A | 2 | 1.61 | 2.33 | -1.73 | -1.77 |
| HMGN2 | 1 | -2.32 | -3.94 | -1.06 | -0.672 |
| HMGN2 | 2 | -1.06 | -3.25 | 0.381 | 3.26 |
| FANCG | 1 | 0.34 | 1.08 | -1.93 | -0.842 |
| FANCG | 2 | 2.54 | 1.99 | 0.0992 | -0.278 |
| EMSY | 1 | -1.28 | -2.39 | -1.71 | -0.921 |
| EMSY | 2 | -0.377 | -0.238 | -0.139 | 0.975 |
| HIRA | 1 | -1.84 | -2.38 | -2.89 | -1.03 |
| HIRA | 2 | 0.261 | 2.78 | -0.654 | -0.251 |
| TOP1MT | 1 | 0.339 | 0.0529 | -0.935 | -0.992 |
| TOP1MT | 2 | 0.446 | 0.354 | 1.23 | -0.278 |
| TNKS2 | 1 | -0.596 | -3.91 | -1.03 | -1.69 |
| TNKS2 | 2 | 0.461 | 1.3 | 1.34 | -0.667 |
| HDAC6 | 1 | -0.752 | -1.96 | -0.578 | -0.0961 |
| HDAC6 | 2 | 1.18 | 2.86 | -0.36 | 0.328 |
